No constants are given. Whether binding was seen depends on the method and setting. In cells and extracts the contact can be indirect. Some entries that bind do so weakly or less than the wild type.
Biological target: ubiquitin‐specific peptidase 14 (USP14) (human (endogenous in human podocytes)) (UniProt P54578)
Assay: co-IP; lysates of HG-treated human podocytes (sh-NC or sh-SPAG5-AS1) in IP lysis buffer, incubated with anti-USP14 or control IgG overnight at 4°C, beads, washed 3 times, Western blotting

Sequences of proteins named here, by UniProt entry; tags and fusion partners are left off.
UniProt P54578: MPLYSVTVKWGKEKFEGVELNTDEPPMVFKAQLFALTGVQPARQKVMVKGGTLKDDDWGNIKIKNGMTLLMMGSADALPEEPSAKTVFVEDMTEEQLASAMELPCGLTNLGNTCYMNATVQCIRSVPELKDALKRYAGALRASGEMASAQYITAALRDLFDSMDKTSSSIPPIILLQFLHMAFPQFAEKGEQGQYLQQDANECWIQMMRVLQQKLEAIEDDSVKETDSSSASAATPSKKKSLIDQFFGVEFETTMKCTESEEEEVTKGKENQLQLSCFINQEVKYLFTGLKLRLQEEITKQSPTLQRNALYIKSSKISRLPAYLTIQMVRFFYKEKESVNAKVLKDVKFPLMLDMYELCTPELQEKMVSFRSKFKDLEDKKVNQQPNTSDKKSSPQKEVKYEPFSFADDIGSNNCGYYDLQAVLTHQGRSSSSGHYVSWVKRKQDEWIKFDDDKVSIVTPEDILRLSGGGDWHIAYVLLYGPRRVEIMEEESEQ

binding: binds
B1: sperm‐associated antigen 5 (SPAG5) (protein, UniProt Q96R06 1-1193)
chain: MWRVKKLSLSLSPSPQTGKPSMRTPLRELTLQPGALTNSGKRSPACSSLTPSLCKLGLQEGSNNSSPVDFVNNKRTDLSSEHFSHSSKWLETCQHESDEQPLDPIPQISSTPKTSEEAVDPLGNYMVKTIVLVPSPLGQQQDMIFEARLDTMAETNSISLNGPLRTDDLVREEVAPCMGDRFSEVAAVSEKPIFQESPSHLLEESPPNPCSEQLHCSKESLSSRTEAVREDLVPSESNAFLPSSVLWLSPSTALAADFRVNHVDPEEEIVEHGAMEEREMRFPTHPKESETEDQALVSSVEDILSTCLTPNLVEMESQEAPGPAVEDVGRILGSDTESWMSPLAWLEKGVNTSVMLENLRQSLSLPSMLRDAAIGTTPFSTCSVGTWFTPSAPQEKSTNTSQTGLVGTKHSTSETEQLLCGRPPDLTALSRHDLEDNLLSSLVILEVLSRQLRDWKSQLAVPHPETQDSSTQTDTSHSGITNKLQHLKESHEMGQALQQARNVMQSWVLISKELISLLHLSLLHLEEDKTTVSQESRRAETLVCCCFDLLKKLRAKLQSLKAEREEARHREEMALRGKDAAEIVLEAFCAHASQRISQLEQDLASMREFRGLLKDAQTQLVGLHAKQEELVQQTVSLTSTLQQDWRSMQLDYTTWTALLSRSRQLTEKLTVKSQQALQERDVAIEEKQEVSRVLEQVSAQLEECKGQTEQLELENSRLATDLRAQLQILANMDSQLKELQSQHTHCAQDLAMKDELLCQLTQSNEEQAAQWQKEEMALKHMQAELQQQQAVLAKEVRDLKETLEFADQENQVAHLELGQVECQLKTTLEVLRERSLQCENLKDTVENLTAKLASTIADNQEQDLEKTRQYSQKLGLLTEQLQSLTLFLQTKLKEKTEQETLLLSTACPPTQEHPLPNDRTFLGSILTAVADEEPESTPVPLLGSDKSAFTRVASMVSLQPAETPGMEESLAEMSIMTTELQSLCSLLQESKEEAIRTLQRKICELQARLQAQEEQHQEVQKAKEADIEKLNQALCLRYKNEKELQEVIQQQNEKILEQIDKSGELISLREEVTHLTRSLRRAETETKVLQEALAGQLDSNCQPMATNWIQEKVWLSQEVDKLRVMFLEMKNEKEKLMIKFQSHRNILEENLRRSDKELEKLDDIVQHIYKTLLSIPEVVRGCKELQGLLEFLS

Source: PMC7046304
